Experimental data from PubChem BioAssay AID1347075 (National Center for Advancing Translational Sciences (NCATS), 2019).
Among all 400,000 compounds or so, about 5,500 (1.4%) were called active. This list was built around the results that the source calls inconclusive (neither active nor inactive); the mix of calls is not that of the screen. Calls follow the shape of the dose curve; as a rule, active = well fitted cell-killing curve with a large enough effect; inconclusive = small, poorly fitted or top-dose-only effect, or effect the other way; inactive = flat fitted curve, though single readings scatter. Where the call is inconclusive, the potency comes from a doubtful curve fit.

test: qHTS assay for MDR1-selective chemotherapeutics: Primary screen using the parental adenocarcinoma cell KB-3-1; conditions: KB-3-1 viability, CellTiter-Glo ATP luminescence, 72 h; activity change, negative = cytotoxic: at 46.1 µM (top of the series); also: nearly all actives have a fitted effect of over 60% in size
Method in brief: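 Luminescent ATP read-out (CellTiter-Glo) measures survival of drug-naive KB-3-1 cells after 72 h compound exposure at 37 °C. Titration series was screened from lowest to highest concentration, with DMSO vehicle plates as background controls.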
% is scaled to controls: 0 for no effect and ±100 for the full control effect; potency is read from the fitted curve at half-maximal effect.

SMILES	Potency	activity change, negative = cytotoxic
CCOC(=O)[C@H]1[C@H]2COc3ccc(Br)cc3[C@@H]2N2C(=O)c3cc(Br)ccc3NC(=O)[C@@]12C	inconclusive: 29.1 µM [cytotoxic, single point]	–
Nc1[nH]c(=O)[nH]c(=O)c1N=Cc1ccccc1	inactive	–
Cn1cccc1Cc1nnc(SCC(=O)Nc2ccc(F)cc2)n1CCc1ccccc1	inactive	–
Oc1c(CN2CCN(c3ccccc3)CC2)cc(Br)c2cccnc12	inconclusive: 3.66 µM [cytotoxic, full curve, poor fit]	–
CCN(CC)c1ccc(/C=N/NC(=O)Cc2cccs2)c(O)c1	inconclusive: 5.8 µM [cytotoxic, full curve]	–
COc1ccc(N2CCN(C(=O)COC(=O)c3ccc(CSC)o3)CC2)cc1	–	inconclusive: -17.6%
CCOC(=O)c1c(C)nc2sc3c(=O)n(-c4ccc(OC)cc4)cnc3c2c1-c1ccc(OC)cc1	inactive	–
CC(=O)Nc1ccc(OCC(O)Cn2nc(C)nc2C)cc1 (configuration not stated)	inconclusive: 13 µM [rising, single point]	–
COc1cccc(C2CC(=O)Nc3cc(C)c(C)cc32)c1 (configuration not stated)	inconclusive: 10.3 µM [cytotoxic, partial curve, poor fit]	–
COc1ccc(-c2csc(NC(=O)CCCc3nc4ccccc4c(=O)[nH]3)n2)cc1OC	inactive	–
COC(=O)c1c(C)oc(C)c1S(=O)(=O)Nc1ccc(C(C)C)cc1	active: 3.26 µM	–
CCN(C(=O)c1c(OC)cccc1OC)c1nnc(-c2cccnc2)s1	inconclusive: 29.1 µM [cytotoxic, single point]	–
CC(=O)Nc1cccc(C(=O)OCC(=O)NC(C)c2ccc(F)cc2)c1 (configuration not stated)	inconclusive: 25.9 µM [rising, single point]	–
Nc1nc(Cl)cc(N2CCC(c3cc(-c4ccc(Cl)cc4Cl)n[nH]3)CC2)n1	inconclusive: 16.4 µM [cytotoxic, single point]	–
COc1ccc([C@H]2C=C3CN(C(=O)OC(C)(C)C)S(=O)(=O)[C@H]3C[C@H]2OC(=O)c2cccs2)cc1	inconclusive: 29.1 µM [cytotoxic, single point]	–
CCN(CC)S(=O)(=O)c1cccc(C(=O)Nc2ccc(Cl)cn2)c1	inconclusive: 25.9 µM [cytotoxic, single point]	–
CCCc1nc(N)c(C#N)c(N)c1C#N	inconclusive: 32.6 µM [cytotoxic, single point]	–
C/C(=N\NC(=O)c1cc2c(s1)CCC(C)C2)c1ccncc1 (configuration not stated)	inconclusive: 29.1 µM [rising, single point]	–
Cc1cccc(Cn2c(SCc3ccc(C(=O)NCCc4ccccc4)cc3)nc3cccnc32)c1	inconclusive: 18.4 µM [cytotoxic, single point]	–
CC(NC(=S)NC1CCC(C(C)(C)C)CC1)c1ccccc1 (configuration not stated)	inconclusive: 16.4 µM [cytotoxic, single point]	–
CCC1Nc2ncnc(N3CCc4ccccc4C3)c2N(Cc2ccc(Br)cc2)C1=O (configuration not stated)	inconclusive: 29.1 µM [cytotoxic, single point]	–

Entries above that contain an aryl methoxy group, in the order listed:
SMILES	Potency	activity change, negative = cytotoxic
COc1ccc(N2CCN(C(=O)COC(=O)c3ccc(CSC)o3)CC2)cc1	–	inconclusive: -17.6%
CCOC(=O)c1c(C)nc2sc3c(=O)n(-c4ccc(OC)cc4)cnc3c2c1-c1ccc(OC)cc1	inactive	–
COc1cccc(C2CC(=O)Nc3cc(C)c(C)cc32)c1 (configuration not stated)	inconclusive: 10.3 µM [cytotoxic, partial curve, poor fit]	–
COc1ccc(-c2csc(NC(=O)CCCc3nc4ccccc4c(=O)[nH]3)n2)cc1OC	inactive	–
CCN(C(=O)c1c(OC)cccc1OC)c1nnc(-c2cccnc2)s1	inconclusive: 29.1 µM [cytotoxic, single point]	–
COc1ccc([C@H]2C=C3CN(C(=O)OC(C)(C)C)S(=O)(=O)[C@H]3C[C@H]2OC(=O)c2cccs2)cc1	inconclusive: 29.1 µM [cytotoxic, single point]	–

(continued)

SMILES	Potency	activity change, negative = cytotoxic
CCCn1c(NC(=O)c2ccc(Cl)c(S(=O)(=O)N3CCCC3)c2)nc2ccccc21	inconclusive: 18.4 µM [cytotoxic, single point]	–
CCCCOc1ccc(N(CC(=O)NC2CCCCC2)C(=O)CCC(=O)Nc2ccccn2)cc1	inactive	–
CNC(=O)c1cccc(NC(=O)c2cc(-c3ccccc3)nc3c2cnn3C(C)C)c1	inconclusive: 29.1 µM [cytotoxic, single point]	–
Cc1ccc(SCc2nc(-c3ccc(C(=O)NCc4ccccc4Cl)cc3)oc2C)cc1	inactive	–
CC1=C(C(=O)OCc2ccc3nsnc3c2)N2C(=O)[C@@H](NC(=O)OCc3ccc4nsnc4c3)[C@H]2SC1	inactive	–
CC[n+]1cccc(-c2nc3ccccc3s2)c1	inconclusive: 16.4 µM [cytotoxic, single point]	–
CC(=O)N1N=C(c2cccc(NS(C)(=O)=O)c2)CC1c1ccc2c(c1)OCO2 (configuration not stated)	inconclusive: 14.6 µM [cytotoxic, partial curve, poor fit]	–
CC(C)CCNC(=O)CCSCCC(=O)NCCC(C)C	inconclusive: 0.0073 µM [rising, full curve, poor fit]	–
CNc1cncc(-c2cccnc2)n1	inactive	–
O=C(C[n+]1cc(Br)cc2ccccc21)c1ccc(O)c(O)c1	inconclusive: 0.0073 µM [cytotoxic, full curve, poor fit]	–
CCCCCNS(=O)(=O)c1ccc(N2CCCCS2(=O)=O)cc1	inconclusive: 18.4 µM [cytotoxic, single point]	–
COc1ccccc1C(=O)COC(=O)CNS(=O)(=O)c1ccc(NC(C)=O)cc1	inconclusive: 0.184 µM [rising, full curve]	–
O=c1[nH]c(=O)c2[nH]c(=S)n(-c3ccccc3)c2[nH]1	inconclusive: 20.6 µM [rising, single point]	–
O=C(CC[C@H]1O[C@@H](n2ccc(=O)[nH]c2=O)[C@H](O)[C@@H]1O)N[C@H](Cc1ccccc1)C(=O)NCC1CCCCC1	inactive	–
COc1ccc(OC)c2c(/C=C/c3c[nH]c4ccccc34)ccnc12	active: 4.11 µM	–
Cc1ccc(S(=O)(=O)N2C[C@@H]3[C@H]4CC[C@H](C4)[C@@H]3[C@@H](C)[C@@H]2c2ccn([Si](C(C)C)(C(C)C)C(C)C)c2)cc1	inactive	–
COc1ccc(OC)c(C2C(C(=O)c3cc4ccccc4o3)=C(O)C(=O)N2c2cc(C)on2)c1 (configuration not stated)	inconclusive: 29.1 µM [cytotoxic, single point]	–
N#CC1(NC(=O)Cn2ncc(Cl)c(Cl)c2=O)CCCCC1	inconclusive: 18.4 µM [cytotoxic, single point]	–
CCOC(=O)N1CCc2c(sc3c2C(=O)NC(c2ccccc2)N3)C1 (configuration not stated)	inconclusive: 29.1 µM [cytotoxic, single point]	–
O=C(Cn1ncc(Cl)c(Cl)c1=O)NCC1CCCCC1	active: 14.6 µM	–
COc1ccc(CN2C[C@@H](CO)O[C@@H](n3cnc4c(NCc5ccc(F)cc5)ncnc43)C2)cc1	inactive	–
